HELM strings list residues between dots; [ac] is acetyl, [am] amide, other brackets name non-standard units.

The text below walks through data of paper PMC7601681 (Biomolecules, 2020).

This data set in a line: general procedure: Fmoc solid-phase peptide synthesis; 2-chlorotrityl chloride resin; DMT/NMM/TosO-, NMM. The following applies: whole synthesis, Anal. RP-HPLC; LC-MS for identity, scale 0.1 mmol.

As to Py-LYQLENY-OH, the “crude HPLC purity” value is listed as 77%. With PEPTIDE1{[PyBu].V.E.A.L.Y.L}$$$$V2.0, the “crude HPLC purity” value stood at 78%.
